Measured values taken from PubChem BioAssay AID256 (DTP/NCI, 2004).
The list is a part of this screen's results and no random one: it gathers tests that were run many times, whatever their T/C, doses with no T/C, and many T/C values between a quarter and a half above the control. Further doses and runs are listed elsewhere. T/C: endpoint of the treated group in % of that of the vehicle group. Some doses have a count of surviving animals in place of a T/C: the source files T/C as zero there, which appears to mark a toxic dose or a test without result, not a measured value. Some doses without a T/C left all or most animals alive at the check, yet need not have been tolerated: survival well below the control is almost never listed, so the zero probably covers shortened survival too. Counts of survivors are from the toxicity check (mostly the fifth day) where no day follows; animals may have died later. Schedules are NCI's codes, taken here to give the interval after Q, in days (D) or hours (H), and the number of doses after X. Some entries hold several experiments; the values are given in rising order. For survival time, this PubChem deposit counts one and a half times the control or more as active, and values a quarter to a half above the control carry no call in these data; other NCI protocols may use other cut-offs. Some T/C values are followed by the survivors on the day toxicity was checked, most often the fifth; where none is given, no animal had died by that day. Counts like (3×) count equal records among those shown. Some schedule codes hold Z or #, which are not explained here.

Test system: CD2F1 mice, L1210 leukemia ip, survival T/C
Assay: NCI In Vivo Anticancer Drug Screen. Data for tumor model L1210 Leukemia (intraperitoneal) in CD2F1 (CDF1) mice
Conditions: higher T/C = longer survival
Summary of the method: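 Transplantable tumor in mice; compound-treated vs vehicle-treated groups. Read-out = treated/control ratio of the measured endpoint.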

[1] = T/C endpoint: mean survival time, dose: 400.0 mg/kg/injection, schedule: Q04DX003 (ip), vehicle: saline with Tween-80
[2] = T/C endpoint: mean survival time, dose: 400.0 mg/kg/injection, schedule: Q01DX001 (ip), vehicle: saline
[3] = T/C endpoint: mean survival time, dose: 400.0 mg/kg/injection, schedule: Q01DX009 (ip), vehicle: saline with Tween-80
[4] = T/C endpoint: mean survival time, dose: 400.0 mg/kg/injection, schedule: Q04DX002 (ip), vehicle: saline with Tween-80
[5] = T/C endpoint: mean survival time, dose: 200.0 mg/kg/injection, schedule: Q04DX003 (ip), vehicle: saline with Tween-80
[6] = T/C endpoint: median survival time, dose: 400.0 mg/kg/injection, schedule: Q01DX005 (ip), vehicle: Klucel (hydroxypropylcellulose) (HPC)

Structure (SMILES): Nc1n[nH]c(N)n1
- T/C (T/C endpoint: mean survival time, dose: 100.0 mg/kg/injection, schedule: Q## X068 (ip), vehicle: water): 127 % of control [9 of 10 alive]
- T/C (T/C endpoint: mean survival time, dose: 125.0 mg/kg/injection, schedule: Q01DX009 (ip), vehicle: saline): 109, 112, 118, 121 % of control
- T/C (T/C endpoint: mean survival time, dose: 200.0 mg/kg/injection, schedule: Q01DX007 (ip), vehicle: saline): 125 % of control
- T/C (T/C endpoint: mean survival time, dose: 200.0 mg/kg/injection, schedule: Q01DX009 (ip), vehicle: saline): 103, 117, 120, 124, 125, 128 % of control
- T/C (T/C endpoint: mean survival time, dose: 200.0 mg/kg/injection, schedule: Q03HX024 (ip), vehicle: saline): 126 and 138 % of control (2×)
- T/C (T/C endpoint: mean survival time, dose: 200.0 mg/kg/injection, schedule: Q#A X018 (ip), vehicle: water): 126 % of control
- T/C (T/C endpoint: mean survival time, dose: 200.0 mg/kg/injection, schedule: Q#A X034 (ip), vehicle: water): 146 % of control
- T/C (T/C endpoint: mean survival time, dose: 250.0 mg/kg/injection, schedule: Q01DX009 (ip), vehicle: saline): 123, 128, 145, 146 % of control
- T/C (T/C endpoint: mean survival time, dose: 400.0 mg/kg/injection, schedule: Q01DX007 (ip), vehicle: saline): 125 % of control
- T/C (T/C endpoint: mean survival time, dose: 400.0 mg/kg/injection, schedule: Q01DX009 (ip), vehicle: saline): 103, 130 (2×), 136, 141, 157 % of control
- T/C (T/C endpoint: mean survival time, dose: 400.0 mg/kg/injection, schedule: Q01DX017 (ip), vehicle: water): 127 % of control
- T/C (T/C endpoint: mean survival time, dose: 500.0 mg/kg/injection, schedule: Q01DX009 (ip), vehicle: saline): 137, 138, 143, 146, 160 % of control
- T/C (T/C endpoint: mean survival time, dose: 800.0 mg/kg/injection, schedule: Q01DX009 (ip), vehicle: saline): 102, 148, 151, 155 % of control
- T/C (T/C endpoint: mean survival time, dose: 800.0 mg/kg/injection, schedule: Q03HX024 (ip), vehicle: saline): 147 % of control
- T/C (T/C endpoint: mean survival time, dose: 1000.0 mg/kg/injection, schedule: Q01DX009 (ip), vehicle: saline): 138, 140, 150 [5 of 6 alive], 155 % of control
- T/C (T/C endpoint: mean survival time, dose: 1600.0 mg/kg/injection, schedule: Q01DX009 (ip), vehicle: saline): 105, 148, 151, 162, 186 % of control
- T/C (T/C endpoint: mean survival time, dose: 1600.0 mg/kg/injection, schedule: Q#A X010 (ip), vehicle: water): 125 % of control
- T/C (T/C endpoint: mean survival time, dose: 1600.0 mg/kg/injection, schedule: Q#A X018 (ip), vehicle: water): 133 % of control
- T/C (T/C endpoint: mean survival time, dose: 2048.0 mg/kg/injection, schedule: Q12HX018 (ip), vehicle: saline): 129 % of control

Structure (SMILES): [NH-]C(CO)C(=O)O.[NH-]C(CO)C(=O)O.[Pd+2] (stereo unspecified)
- survivor count (T/C endpoint: mean survival time, dose: 200.0 mg/kg/injection, schedule: Q04DX003 (ip), vehicle: distilled water + Tween-80): 2 of 6
- survivor count (T/C endpoint: mean survival time, dose: 200.0 mg/kg/injection, schedule: Q04DX003 (ip), vehicle: saline): 0 of 6
- survivor count (T/C endpoint: mean survival time, dose: 200.0 mg/kg/injection, schedule: Q04DX003 (ip), vehicle: water): 0 of 6

Structure (SMILES): COc1cc(C(=O)C=C(C(F)(F)F)C(F)(F)F)cc(OC)c1OC
- survivor count [1]: 2 of 6

Structure (SMILES): S=c1nc(-c2ccccc2)c(-c2ccccc2)n[nH]1
- survivor count (T/C endpoint: mean survival time, dose: 300.0 mg/kg/injection, schedule: Q01DX009 (ip), vehicle: saline): 6 of 6

Structure (SMILES): C1CN(CCSSCCN2CCOCC2)CCO1
- survivor count [1]: 3 of 6

Structure (SMILES): CCSC(C)CC(=O)O (stereo unspecified)
- survivor count [2]: 0 of 6

Structure (SMILES): Clc1ccc2c(CBr)ccnc2c1
- survivor count (T/C endpoint: mean survival time, dose: 200.0 mg/kg/injection, schedule: Q04DX003 (ip), vehicle: other): 1 of 6

Structure (SMILES): O=C(Nc1cccnc1)c1ccc([N+](=O)[O-])s1
- survivor count (T/C endpoint: mean survival time, dose: 400.0 mg/kg/injection, schedule: Q01DX005 (ip), vehicle: saline + alcohol): 4 of 6
- T/C (T/C endpoint: mean survival time, dose: 400.0 mg/kg/injection, schedule: Q01DX005 (ip), vehicle: saline): 136 % of control
- survivor count (T/C endpoint: mean survival time, dose: 800.0 mg/kg/injection, schedule: Q01DX005 (ip), vehicle: saline + alcohol): 5 of 6
- survivor count (T/C endpoint: mean survival time, dose: 800.0 mg/kg/injection, schedule: Q01DX005 (ip), vehicle: saline): 3 of 6
- T/C (T/C endpoint: median survival time, dose: 100.0 mg/kg/injection, schedule: Q01DX005 (ip), vehicle: saline): 128 and 128 % of control [5 of 6 alive]
- T/C (T/C endpoint: median survival time, dose: 166.67 mg/kg/injection, schedule: Q01DX005 (ip), vehicle: saline): 128 % of control
- T/C (T/C endpoint: median survival time, dose: 200.0 mg/kg/injection, schedule: Q01DX005 (ip), vehicle: saline): 139 % of control [4 of 6 alive]
- T/C (T/C endpoint: median survival time, dose: 277.78 mg/kg/injection, schedule: Q01DX005 (ip), vehicle: saline): 144 % of control
- survivor count (T/C endpoint: median survival time, dose: 400.0 mg/kg/injection, schedule: Q01DX005 (ip), vehicle: saline): 2 of 6

Structure (SMILES): O=c1ccn(C2CC3[O][Sn]([c]4ccccc4)([c]4ccccc4)[O]CC3O2)c(=O)[nH]1 (stereo unspecified)
- survivor count (T/C endpoint: mean survival time, dose: 50.0 mg/kg/injection, schedule: Q01DX005 (ip), vehicle: distilled water + Tween-80): 6 of 6

Structure (SMILES): c1coc(-c2nc3ccccc3s2)c1
- survivor count (T/C endpoint: mean survival time, dose: 400.0 mg/kg/injection, schedule: Q01DX001 (ip), vehicle: Klucel (hydroxypropylcellulose) (HPC)): 0 of 3 and 0 of 6

Structure (SMILES): O=S(Nc1ccccc1)Nc1ccccc1
- survivor count (T/C endpoint: mean survival time, dose: 200.0 mg/kg/injection, schedule: Q01DX009 (ip), vehicle: saline with Tween-80): 3 of 6
- survivor count [3]: 2 of 6

Structure (SMILES): O=C(COc1ccc(Cl)c(Cl)c1)Nc1ccc[n+](Cc2cccc(Cl)c2S(=O)(=O)F)c1
- survivor count [1]: 3 of 6

Structure (SMILES): Cc1cnc([Se])[nH]c1=O
- survivor count (T/C endpoint: mean survival time, dose: 100.0 mg/kg/injection, schedule: Q01DX005 (ip), vehicle: water): 1 of 3
- survivor count (T/C endpoint: mean survival time, dose: 200.0 mg/kg/injection, schedule: Q01DX005 (ip), vehicle: water): 0 of 3
- survivor count (T/C endpoint: mean survival time, dose: 400.0 mg/kg/injection, schedule: Q01DX005 (ip), vehicle: water): 0 of 3

Structure (SMILES): O=CN(/C=C1\CC(OO)NC1=O)Cc1ccccc1 (stereo unspecified)
- survivor count (T/C endpoint: mean survival time, dose: 300.0 mg/kg/injection, schedule: Q01DX001 (ip), vehicle: saline): 0 of 6

Structure (SMILES): O=[N+]([O-])c1ccc(OC(=S)c2ccccc2)cc1
- survivor count [4]: 0 of 3

Structure (SMILES): CCCCCCCCCCCCCCCCS(=O)CC(O)COC(=O)c1ccc(C(=O)OCC(O)CS(=O)CCCCCCCCCCCCCCCC)cc1 (stereo unspecified)
- survivor count (T/C endpoint: mean survival time, dose: 400.0 mg/kg/injection, schedule: Q01DX009 (ip), vehicle: saline + Tween-80 + alcohol): 3 of 6

Structure (SMILES): CCOc1ccc(Nc2nc(C(Cl)(Cl)Cl)cc(C(Cl)(Cl)Cl)n2)cc1CN(CC)CC
- survivor count (T/C endpoint: mean survival time, dose: 100.0 mg/kg/injection, schedule: Q04DX003 (ip), vehicle: saline with Tween-80): 2 of 6
- survivor count [5]: 2 of 6
- survivor count [1]: 1 of 6

Structure (SMILES): COC1=CC2c3ccccc3C1C1C(OC)=CC2c2ccccc21
- survivor count [5]: 6 of 6
- survivor count [1]: 6 of 6

Structure (SMILES): ClCCN(CCCl)c1ccc(CCN2CCCCC2)cc1
- T/C (T/C endpoint: mean survival time, dose: 6.25 mg/kg/injection, schedule: Q01DX009 (ip), vehicle: Klucel (hydroxypropylcellulose) (HPC)): 128 % of control

Structure (SMILES): Clc1[nH]nc2ccccc12
- survivor count [3]: 0 of 6

Structure (SMILES): CN(C)c1ccc(/C=N/N=C(/N)N[N+](=O)[O-])cc1
- survivor count [2]: 0 of 3

Structure (SMILES): Cc1cccc(Br)[n+]1[O-]
- survivor count (T/C endpoint: mean survival time, dose: 400.0 mg/kg/injection, schedule: Q04DX003 (ip), vehicle: saline): 0 of 6

Structure (SMILES): CNC(=S)SC1=NS(=O)(=O)c2ccccc2N1
- T/C (T/C endpoint: median survival time, dose: 240.0 mg/kg/injection, schedule: Q01DX005 (ip), vehicle: Klucel (hydroxypropylcellulose) (HPC)): 127 % of control [4 of 6 alive]
- T/C [6]: 132 % of control [5 of 6 alive]
- survivor count [6]: 0 of 6
- survivor count (T/C endpoint: median survival time, dose: 666.67 mg/kg/injection, schedule: Q01DX005 (ip), vehicle: Klucel (hydroxypropylcellulose) (HPC)): 0 of 6
- survivor count (T/C endpoint: median survival time, dose: 1111.11 mg/kg/injection, schedule: Q01DX005 (ip), vehicle: Klucel (hydroxypropylcellulose) (HPC)): 0 of 6

Structure (SMILES): CN(C)N=C1CCC2(CC1)c1ccccc1-c1ccccc12
- survivor count (T/C endpoint: mean survival time, dose: 100.0 mg/kg/injection, schedule: Q01DX001 (ip), vehicle: saline with Tween-80): 6 of 6

Structure (SMILES): CC12CCCCC1=CC(=O)CC2 (stereo unspecified)
- survivor count [3]: 3 of 6

Structure (SMILES): CC(C)(C)C(Br)C(=O)O (stereo unspecified)
- survivor count (T/C endpoint: mean survival time, dose: 300.0 mg/kg/injection, schedule: Q01DX001 (ip), vehicle: saline with Tween-80): 2 of 6

Structure (SMILES): OCC1OC(n2cnc3c(Cl)ncnc32)C(O)C1O (stereo unspecified)
- survivor count (T/C endpoint: median survival time, dose: 500.0 mg/kg/injection, schedule: Q01DX009 (ip), vehicle: saline): 6 of 6

Structure (SMILES): O=S(=O)(CCCl)c1ccc(Cl)cc1
- survivor count [4]: 1 of 3
